# Data: PubChem BioAssay AID1671190 (National Center for Advancing Translational Sciences (NCATS), 2021)
# Amino acid sequences for entries named in this document (tags omitted). A change or cut given only in a name is not applied to a line headed by its entry.
# UniProt P18054: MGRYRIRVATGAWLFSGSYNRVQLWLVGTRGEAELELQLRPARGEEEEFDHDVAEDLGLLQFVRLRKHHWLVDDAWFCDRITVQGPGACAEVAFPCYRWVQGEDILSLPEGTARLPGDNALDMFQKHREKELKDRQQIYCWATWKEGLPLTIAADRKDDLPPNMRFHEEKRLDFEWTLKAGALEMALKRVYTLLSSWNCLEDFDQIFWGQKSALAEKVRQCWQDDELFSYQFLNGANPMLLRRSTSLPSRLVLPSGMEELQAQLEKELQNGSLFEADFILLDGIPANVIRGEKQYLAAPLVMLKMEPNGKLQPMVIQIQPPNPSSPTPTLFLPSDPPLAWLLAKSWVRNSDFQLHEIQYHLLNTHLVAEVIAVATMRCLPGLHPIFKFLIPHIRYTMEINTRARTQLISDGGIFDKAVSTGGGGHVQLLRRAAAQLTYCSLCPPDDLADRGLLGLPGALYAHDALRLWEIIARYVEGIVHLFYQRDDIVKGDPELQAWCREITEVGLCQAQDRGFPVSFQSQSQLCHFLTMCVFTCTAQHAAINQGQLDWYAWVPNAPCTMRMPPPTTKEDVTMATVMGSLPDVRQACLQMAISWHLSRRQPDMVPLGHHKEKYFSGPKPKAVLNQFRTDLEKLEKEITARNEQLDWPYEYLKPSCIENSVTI
# Where “and” joins values, the source holds several entries; their conditions need not be identical. Equal entries are not always repeated. The campaign covered roughly 580,000 compounds. About 6,100 (1.1%) were called active. Inconclusive results, whose numbers are uncertain, are shown with a selection of clear calls. The call rests on the fitted dose curve; in most records, active means well fitted inhibition curve with a large enough effect; inconclusive means small, poorly fitted or top-dose-only effect, or another doubt; inactive means no such curve, though single readings can be large or run the other way. Potencies of inconclusive entries are doubtful fits and often do not repeat.
# Target: Polyunsaturated fatty acid lipoxygenase ALOX12 (Homo sapiens) (UniProt P18054)
# Assay: Primary qHTS assay for inhibitors of human arachidonate 12S-lipoxygenase (ALOX12): Round 2
# Settings: purified 12hLO, xylenol orange hydroperoxide absorbance; activity change, negative = inhibition: at 108 µM (top of the series) unless noted
# Summary of the method: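 Purified human 12hLO at 150 nM in 25 mM Hepes, 0.01% Triton X-100, pH 7.0, preincubated 15 min at room temperature with compound. Reaction started with 40 uM arachidonic acid, 30 min at room temperature. Hydroperoxide measured by Fe-xylenol orange, 573/405 nm absorbance ratio.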
# On the % scale 0 is the no-effect control and ±100 the full control effect; potency means the concentration at half of the fitted maximal effect.
Structure (SMILES),Potency,"activity change, negative = inhibition"
CC(=O)Nc1cc(-c2ccc(CO)cc2)cn2c(-c3cccc(C(F)(F)F)c3)cnc12,"inconclusive: 50.1 µM [inhibitor, partial curve, poor fit]",–
Cc1noc2c(-c3ccnn3C)cc(-c3ccc(F)cc3)nc12,"inconclusive: 20 µM [inhibitor, full curve, poor fit]",–
CC(=O)Nc1ccc(S(=O)(=O)Nc2ccc3c(c2)CCC3)cc1,"inconclusive: 126 µM [inhibitor, single point]",–
CCCCCOP(=O)(OCCCCC)C1(NS(=O)(=O)c2ccccc2)C=CC(=O)c2ccccc21 (centres undefined),"inconclusive: 4.47 µM [inhibitor, full curve, poor fit]",–
CC(C)CC(=O)NC(=S)NCCc1ccccc1,"inconclusive: 56.2 µM [inhibitor, single point]",–
Cc1cc(C)c(NC(=O)CN(C)CC(=O)Nc2cccc(S(=O)(=O)N(C)c3ccccc3)c2)c(C)c1,"inconclusive: 50.1 µM [inhibitor, partial curve, poor fit]",–
Cc1ccc(C)c(SCC(=O)OCC(=O)Nc2ncc(C(F)(F)F)cc2Cl)c1,"inconclusive: 44.7 µM [inhibitor, partial curve]",–
CC1=C(C(=O)OC(C)C)C(c2ccc(Br)s2)NC(=O)N1C (centres undefined),"inconclusive: 63.1 µM [inhibitor, partial curve, poor fit] and inconclusive: 14.1 µM [inhibitor, partial curve, poor fit]",–
O=C(NCc1ccncc1)Nc1cc(Cl)ccc1Cl,"inconclusive: 44.7 µM [inhibitor, partial curve, poor fit]",–
O=C(N/C(=C/c1ccc([N+](=O)[O-])cc1)C(=O)N1CCCC1)c1ccccc1,–,inactive: -15.6%
O=C(Nc1ccc(F)cc1F)N[C@H]1C[C@H]2C(=O)NC[C@@H](CCC(=O)N3CCCCC3)N2C1,–,inactive: 0.0341%
O=C(/C=C/c1cccc(O)c1)c1cccc(O)c1,–,inactive: -21.8%
O=C(Cc1ccc(F)cc1)N(Cc1cccc2[nH]ccc12)C1CC1,–,inactive: 0.879%
O=C(O)C[C@@H]1CCN(C(=O)c2ccnc(Cl)c2)C[C@@H]1CCN1CCN(c2ccc(F)cc2)CC1,–,inactive: 45.3%
NS(=O)(=O)c1ccc(NC(=S)N2CCN(c3ccccc3Cl)CC2)cc1,–,inactive: 12.6%
COc1ccc(OC)c(C(=O)Nc2c(O)ccc3ccccc23)c1,"inconclusive: 35.5 µM [inhibitor, single point]",–
N#Cc1cc2c(nc1N1CCN(C(C(=O)O)c3c[nH]c4cc(CO)ccc34)CC1)CCCC2 (centres undefined),–,inactive: -25.5%
COc1cccc2cc(-c3ccc(OCC(=O)NCCN4CCOCC4)cc3)c(=O)oc12,–,inactive: -5.92%
Cc1cccc(OCc2n[nH]c(=S)n2-c2ccccc2)c1,active: 35.5 µM,–
CC(=O)N1CCC(C(=O)N2CCC3(CC2)NC(=O)N(c2cccc(Cl)c2)N3)CC1,active: 1.26 µM,–
O=S(=O)(c1ccccc1)N(Cc1ccccc1)c1ccccn1,–,inactive: -2.67%
O=C(Cc1ccccc1Cl)N1CCC(Cc2nc(-c3ccc(F)cc3)no2)CC1,"inconclusive: 31.6 µM [inhibitor, full curve, poor fit]",–
O=C(NNC(=S)NC(=O)c1ccc(F)cc1)c1ccncc1,"inconclusive: 28.2 µM [inhibitor, partial curve, poor fit]",–

# Single records, from the list above.
# CC1=C(C(=O)OC(C)C)C(c2ccc(Br)s2)NC(=O)N1C (centres undefined) in the list: Potency: inconclusive: 63.1 µM [inhibitor, partial curve, poor fit] and inconclusive: 14.1 µM [inhibitor, partial curve, poor fit]
# O=C(N/C(=C/c1ccc([N+](=O)[O-])cc1)C(=O)N1CCCC1)c1ccccc1 in the list: activity change, negative = inhibition: inactive: -15.6%
# O=C(NNC(=S)NC(=O)c1ccc(F)cc1)c1ccncc1 in the list: Potency: inconclusive: 28.2 µM [inhibitor, partial curve, poor fit]
# O=C(NCc1ccncc1)Nc1cc(Cl)ccc1Cl in the list: Potency: inconclusive: 44.7 µM [inhibitor, partial curve, poor fit]

# (further entries)

Structure (SMILES),Potency,"activity change, negative = inhibition"
Cc1ccc(S(=O)(=O)Cc2ccc(C(=O)N3CCN(c4ccc(F)cc4)CC3)o2)cc1,–,inactive: -13.7%
CC(=O)Nc1nonc1-c1nnc(SCC(=O)Nc2cc(C)cc(C)c2)n1C,–,inactive: -8.94%
CCn1c(C)cc(C(=O)CSc2nnnn2C2CCCC2)c1C,–,inactive: -16.5%
O=C(c1c(F)cccc1F)N1CCN(c2ccccc2F)CC1,–,inconclusive: -50.8% [inhibitor]
O=S(=O)(NCCNS(=O)(=O)c1ccccc1)c1ccccc1,"inconclusive: 158 µM [inhibitor, partial curve, poor fit]",–
CCCCCC(=O)Nc1sc(C)c(C)c1C#N,"inconclusive: 44.7 µM [inhibitor, partial curve, poor fit]",–
Cc1ccc(O)c(C(=O)/C=C/c2ccc(Cl)cc2Cl)c1,"inconclusive: 31.6 µM [inhibitor, single point]",–
CS(=O)(=O)Nc1ccc(C2(C(=O)NCc3cccc(F)c3)CCCCC2)cc1,–,inactive: 25.2%
CC(=O)c1sc(NC(=O)C2CCCN2S(=O)(=O)c2ccccc2F)nc1C (centres undefined),"inconclusive: 100 µM [inhibitor, single point]",–
CCCc1nnc(NC(=O)C2(c3ccc(Cl)cc3)CCC2)s1,"inconclusive: 15.8 µM [inhibitor, full curve, poor fit]",–
COC(=O)c1c(-c2ccc(S(C)(=O)=O)cc2)sc2cc(OC)ccc12,–,inactive: 3.37%
COc1cccc(NC(=O)/C(C#N)=C\c2cn(Cc3ccc(C)cc3)c3ccccc23)c1,–,inactive: -22.7%
Cc1cccc(OCC2(CNCc3c(C)noc3C)C[C@@H](O)[C@@H](O)C2)n1 (some centres undefined),active: 31.6 µM,–
O=C1C(O)C2(CCCCC2)N1C1CCN(Cc2ccc(F)c(F)c2)CC1 (centres undefined),–,inactive: 55.3%
COc1ccc(CNc2ncnc3cc(OC)c(OC)cc23)cc1,–,inactive: 0%
CCc1ccc(N2C(=O)CN(Cc3sccc3C)C2=S)cc1,"inconclusive: 100 µM [inhibitor, single point]",–
Cc1nnc2n1CCC(N(C)C(=O)c1ccc3ccccc3n1)CC2 (centres undefined),–,inactive: 61.2%
CN1CCN(C(c2ccc(C(F)(F)F)cc2)c2cc(Cl)c3cccnc3c2O)CC1 (centres undefined),"inconclusive: 8.91 µM [inhibitor, full curve, poor fit]",–
O=C(O)C(c1c[nH]c2ccccc12)N1CCN(Cc2cccc(Cl)c2)CC1 (centres undefined),"inconclusive: 3.55 µM [inhibitor, full curve, poor fit]",–
CCOC(=O)[C@]12Cc3c(cc(OC)c(OC)c3OC)[C@H]1N(CCC(=O)OC)C(=O)c1cc(OC)ccc12,"inconclusive: 8.91 µM [inhibitor, partial curve, poor fit]",–
Cc1ccn2c(Cc3ccccc3)c(-c3ccccc3)nc2c1,"inconclusive: 44.7 µM [inhibitor, partial curve, poor fit]",–
CN1c2cc(C(=O)Nc3ccc(OC(F)(F)F)cc3)ccc2C(=O)N2CCCCC21 (centres undefined),–,inactive: 27.9%
c1cncc(-c2ccc3ncnc(NC4CCNCC4)c3c2)c1,–,inactive: -22.5%

Structure (SMILES),Potency,"activity change, negative = inhibition"
COc1ccc(Cc2nnc(SCC(=O)Nc3ccc(F)cc3)n2C)cc1,–,inactive: 1.67%
Cc1nc2cnc(N3CCN(C)CC3)nc2n(C2CC2)c1=O,"inconclusive: 5.01 µM [inhibitor, full curve, poor fit]",–
O=C(COC(=O)c1ccco1)Nc1ccc(N2CCOCC2)cc1,"inconclusive: 6.31 µM [inhibitor, full curve, poor fit]",–
CN(C)c1ccc(N=C/C=C2\N(C)c3ccccc3C2(C)C)cc1,"inconclusive: 44.7 µM [inhibitor, partial curve, poor fit]",–
Cc1[nH]nc2c1C(c1ccc(Cl)cc1)C(C#N)=C(N)O2 (centres undefined),"inconclusive: 35.5 µM [inhibitor, partial curve, poor fit]",–
CN(C)C1(C#CCCCCC#CC2(N(C)C)CCCCC2)CCCCC1,–,inactive: -10.4%
CCc1ccc(NC(=O)c2cc(S(=O)(=O)N3CCCCCC3)ccc2F)cc1,"inconclusive: 100 µM [inhibitor, partial curve, poor fit]",–
CCCN(C(=O)CSc1nc2cc(S(=O)(=O)N(CC)CC)ccc2o1)C1CCS(=O)(=O)C1 (centres undefined),–,inactive: 13.8%
Cc1nnc(SCC(=O)c2ccc(Cl)cc2)n1Cc1ccccc1,"inconclusive: 44.7 µM [inhibitor, partial curve, poor fit]",–
O=C(OCCN1CCCC1)C1(c2ccccc2)CCCC1,"inconclusive: 79.4 µM [inhibitor, single point]",–
O=C(C1CCCN(Cc2cccc(F)c2)C1)N1CCCCC1 (centres undefined),"inconclusive: 2 µM [inhibitor, full curve]",–
CCC/C(C#Cc1ccsc1)=C1/c2ccccc2C(=O)N1c1ccccc1,"inconclusive: 89.1 µM [inhibitor, single point]",–
O=C(O)c1nc(-c2ccccc2)n(-c2ccccc2)n1,"inconclusive: 5.01 µM [inhibitor, full curve, poor fit]",–
S=C(Nc1ccc(Cl)c(Cl)c1)NC1CCCCC1,"inconclusive: 56.2 µM [inhibitor, partial curve, poor fit]",–
CCn1c(SCC(=O)c2cc(C)n(C)c2C)nnc1-c1ccccc1,"inconclusive: 39.8 µM [inhibitor, partial curve, poor fit]",–
CC(C)c1onc(C(=O)NCc2ccccc2)c1[N+](=O)[O-],–,inactive: 7.22%
CC(C)C(=O)N1CCN(c2ccccc2NC(=O)c2ccco2)CC1,–,inactive: 12.6%
COc1cccc(NC(=O)Nc2nnc(Cc3ccccc3F)s2)c1,"inconclusive: 2.82 µM [inhibitor, full curve, poor fit]",–
COC(=O)[C@]1(Cc2ccccc2)N[C@H](c2ccc(-c3cccc(Cl)c3)cc2)[C@@H]2C(=O)N(C)C(=O)[C@@H]21,"inconclusive: 89.1 µM [inhibitor, single point]",–
Cc1ccc(-n2ncc3c(NCCCN4CCOCC4)ncnc32)cc1Cl,"inconclusive: 50.1 µM [inhibitor, partial curve, poor fit]",–
Cn1ccc(-c2ccccc2)n1,–,inactive: -0.0414%
COc1ccc(N(CC(=O)Nc2nccs2)S(=O)(=O)c2c(C)nn(C)c2C)cc1,"inconclusive: 39.8 µM [inhibitor, partial curve, poor fit]",–
O=C(Nc1ccccc1)c1ccc(NC(=O)c2cccs2)cc1,"inconclusive: 50.1 µM [inhibitor, partial curve]",–
